Reference: patent US8029920B2, “1,3,5-tris(diarylamino)benzenes and use thereof” (Bando Chemical Industries, Ltd, priority 2006, dated 2011)

Assay: Organic electroluminescence element with the substance as hole transporting layer
Conditions: for energy efficiency / current efficiency: current density 25 mA/cm^2; for current efficiency: hole transporting layer 10 nm, CuPC/Alq3/LiF/Al element; for luminance half-life period: driving time to half the initial luminance of 1000 cd/m^2

SMILES	maximum luminance	energy efficiency	current efficiency	luminance half-life period
Cc1ccc(-c2ccc(N(c3ccc(-c4ccc(C)cc4)cc3)c3cc(N(c4ccc(C)cc4)c4ccc(C)cc4)cc(N(c4ccc(-c5ccc(C)cc5)cc4)c4ccc(-c5ccc(C)cc5)cc4)c3)cc2)cc1 [compound (3), N,N,N′,N′-tetrakis(4′-methyl-4-biphenylyl)-N″,N″-bis(4-methylphenyl)benzene-1,3,5-triamine]	33239 cd/m^2	3.4 lm/W	5.4 cd/A	594 days
Cc1ccc(N(c2ccc(C)cc2)c2cc(N(c3ccc(-c4ccccc4)cc3)c3ccc(-c4ccccc4)cc3)cc(N(c3ccc(-c4ccccc4)cc3)c3ccc(-c4ccccc4)cc3)c2)cc1 [compound (4), N,N,N′,N′-tetrakis(4-biphenylyl)-N″,N″-bis(4-methylphenyl)benzene-1,3,5-triamine]	32910 cd/m^2	3.3 lm/W	5.2 cd/A	660.92 days
c1ccc(N(c2ccc(-c3ccc(N(c4ccccc4)c4cccc5ccccc45)cc3)cc2)c2cccc3ccccc23)cc1 [α-NPD, 4,4′-bis(N-(1-naphthyl)-N-phenylamino)-biphenyl, reference compound]	28710 cd/m^2	2.2 lm/W	4.0 cd/A	334.1 days
